In assay [1] the target is purified human mesothelin protein (recombinant, 6xHis tag) (human) (UniProt Q13421). Briefly: SPR (Biacore T200), antibody captured by anti-human IgG (Fc), human mesothelin as analyte at 10, 20, 40, 80, 160 nM.
Assay [2] shares this target. Briefly: single-phage ELISA. In general terms: An ELISA detects its analyte on a solid surface through an enzyme-linked reagent.
For assay [3] the target is unchanged. Briefly: single phage ELISA, mesothelin coated at 100 ng/well.
The target is the same in assay [4]. Kind of assay: single phage ELISA, 100 ng/well coated antigen, anti-M13 detection.

Chains of the proteins cited; added tags and fusions are not shown. Lines headed by an entry give the natural chain unless they say otherwise; changes in a name come on top.
UniProt Q13421: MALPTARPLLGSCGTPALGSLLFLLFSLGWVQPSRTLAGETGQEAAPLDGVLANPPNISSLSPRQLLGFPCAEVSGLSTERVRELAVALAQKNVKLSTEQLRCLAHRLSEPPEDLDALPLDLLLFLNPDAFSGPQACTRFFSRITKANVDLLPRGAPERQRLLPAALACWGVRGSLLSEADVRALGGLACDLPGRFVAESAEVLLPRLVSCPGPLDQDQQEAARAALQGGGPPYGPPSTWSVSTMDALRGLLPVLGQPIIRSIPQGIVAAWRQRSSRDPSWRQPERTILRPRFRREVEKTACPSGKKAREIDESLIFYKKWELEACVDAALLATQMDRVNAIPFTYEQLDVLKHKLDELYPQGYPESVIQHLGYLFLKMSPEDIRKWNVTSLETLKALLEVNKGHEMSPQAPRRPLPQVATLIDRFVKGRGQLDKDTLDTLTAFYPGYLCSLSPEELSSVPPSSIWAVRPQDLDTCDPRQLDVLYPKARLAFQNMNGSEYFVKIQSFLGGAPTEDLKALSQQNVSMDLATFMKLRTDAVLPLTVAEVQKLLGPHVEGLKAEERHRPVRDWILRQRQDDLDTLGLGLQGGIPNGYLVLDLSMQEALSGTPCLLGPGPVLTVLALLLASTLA

Results are given in words; binding and its absence hold for the method and conditions named. Some binding calls cover weakened binding; strength is not graded here.

B1: P1A6E monoclonal antibody (antibody, V domains shown)
VH: QVQLEQSGLGLVKPSQTLSLTCAISGDTVSSDSAAWNWIRQSPSRGLEWLGRTYYRSKWFNDYAVSVKGRITINSDTSKNQFSLQLNSVTPEDTAVYYCARSNSYYYYAMDVWGQGTLVTVSS
VL: QAVLTQPSSLSASPGASASLTCTLRSGINVGIYRIYWYQQRPGSPPQILLTYKSDSDKYQGSGVPSRFSGSKDASANAGILLISGLQSEDEADYYCMIWHSGGWVFGGGTKVTVLG
notes: Full antibody: VH in plasmid pIH with human IgG1 CH gene, VL in plasmid pIK with human IgG CL gene; also called monoclonal antibody P1A6E
As to B1, the binding result in assay [1] is given as “binds”.

B2: P3F2 monoclonal antibody (antibody, V domains shown)
VH: QMQLVQSGAEVKKPGASVKVSCKASGYTFTSYYMHWVRQAPGQGLEWMGIINPSGGSTSYAQKFQGRVTMTRDTSTSTVYMELSSLRSEDTAVYYCASSRSGTTVVNHDAFDIWGKGTTVTVSS
VL: DIQLTQSPSSLSASVGDRVTITCRASQVISRALAWYQQTPGKPPKLLIYDASNLQSGVPSRFSGSGSGTDFTLTISRLQPEDFATYYCQQFNSYPLTFGGGTKLEIKR
notes: Full antibody: VH in plasmid pIH with human IgG1 CH gene, VL in plasmid pIK with human IgG CL gene; also called monoclonal antibody P3F2
For B2, the binding result in assay [1] is “binds”.

B3: single chain antibody P1A6E (phage-displayed, single phage ELISA) (scFv)
scFv: QVQLEQSGLGLVKPSQTLSLTCAISGDTVSSDSAAWNWIRQSPSRGLEWLGRTYYRSKWFNDYAVSVKGRITINSDTSKNQFSLQLNSVTPEDTAVYYCARSNSYYYYAMDVWGQGTLVTVSSGGGGSGGGGSGGGGSQAVLTQPSSLSASPGASASLTCTLRSGINVGIYRIYWYQQRPGSPPQILLTYKSDSDKYQGSGVPSRFSGSKDASANAGILLISGLQSEDEADYYCMIWHSGGWVFGGGTKVTVLG
notes: the fusion to the phage coat protein is not described
In the case of B3, the binding result in assay [2], in assay [3] and in assay [4] was “binds” throughout.

B4: single chain antibody P3F2 (phage-displayed, single phage ELISA) (scFv)
scFv: QMQLVQSGAEVKKPGASVKVSCKASGYTFTSYYMHWVRQAPGQGLEWMGIINPSGGSTSYAQKFQGRVTMTRDTSTSTVYMELSSLRSEDTAVYYCASSRSGTTVVNHDAFDIWGKGTTVTVSSGGGGSGGGGSGGGGSDIQLTQSPSSLSASVGDRVTITCRASQVISRALAWYQQTPGKPPKLLIYDASNLQSGVPSRFSGSGSGTDFTLTISRLQPEDFATYYCQQFNSYPLTFGGGTKLEIKR
notes: as for B3
Regarding B4, the binding result in assay [2], in assay [3] and in assay [4] was “binds” each time.

The values are drawn from patent publication US20180244796A1 (CARSGEN THERAPEUTICS, published 2018).
